Data from PubChem BioAssay AID256 (DTP/NCI, 2004).
The list is a part of this screen's results and no random one: it gathers tests that were run many times, whatever their T/C, doses with no T/C, and many T/C values between a quarter and a half above the control. Further doses and runs are listed elsewhere. T/C: endpoint of the treated group in % of that of the vehicle group. Some entries give survivors of the animals treated and no T/C: the source holds a T/C of zero for them, seemingly a mark for toxic or unscored doses. Some survivor counts are full or nearly so, which does not show that the dose was tolerated: the source hardly ever lists a survival T/C far under the control, and the zero likely stands for such cases as well. Counts of survivors are from the toxicity check (mostly the fifth day) where no day follows; animals may have died later. Schedule codes are those of the source, read here as Q, the interval in days (D) or hours (H), X, the number of doses. Some entries hold several experiments; their values stand side by side, smallest first. For survival time, this PubChem deposit counts one and a half times the control or more as active, and values a quarter to a half above the control carry no call in these data; other NCI protocols may use other cut-offs. Some T/C values carry the count of animals alive at the toxicity check (mostly the fifth day); where none is given, no animal had died by that day.

Test system: CD2F1 mice, L1210 leukemia ip, survival T/C
Assay: NCI In Vivo Anticancer Drug Screen. Data for tumor model L1210 Leukemia (intraperitoneal) in CD2F1 (CDF1) mice
Conditions: higher T/C = longer survival
Summary of the method: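 Mice carrying a transplanted tumor received test compound or vehicle alone. The value is the measurement in the treated group divided by that in the vehicle-treated control group.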

[1] = T/C endpoint: mean survival time, dose: 100.0 mg/kg/injection, schedule: Q01DX005 (ip), vehicle: other
[2] = T/C endpoint: mean survival time, dose: 200.0 mg/kg/injection, schedule: Q01DX005 (ip), vehicle: other
[3] = T/C endpoint: mean survival time, dose: 25.0 mg/kg/injection, schedule: Q01DX009 (ip), vehicle: saline with Tween-80
[4] = T/C endpoint: mean survival time, dose: 50.0 mg/kg/injection, schedule: Q01DX009 (ip), vehicle: saline with Tween-80
[5] = T/C endpoint: mean survival time, dose: 100.0 mg/kg/injection, schedule: Q01DX009 (ip), vehicle: saline with Tween-80
[6] = T/C endpoint: mean survival time, dose: 100.0 mg/kg/injection, schedule: Q04DX003 (ip), vehicle: saline with Tween-80
[7] = T/C endpoint: mean survival time, dose: 200.0 mg/kg/injection, schedule: Q04DX003 (ip), vehicle: saline with Tween-80
[8] = T/C endpoint: mean survival time, dose: 400.0 mg/kg/injection, schedule: Q04DX003 (ip), vehicle: saline with Tween-80
[9] = T/C endpoint: mean survival time, dose: 400.0 mg/kg/injection, schedule: Q01DX009 (ip), vehicle: saline with Tween-80
[10] = T/C endpoint: mean survival time, dose: 400.0 mg/kg/injection, schedule: Q04DX002 (ip), vehicle: saline with Tween-80
[11] = T/C endpoint: median survival time, dose: 200.0 mg/kg/injection, schedule: Q01DX005 (ip), vehicle: distilled water + Tween-80
[12] = T/C endpoint: mean survival time, dose: 100.0 mg/kg/injection, schedule: Q01DX009 (ip), vehicle: Klucel (hydroxypropylcellulose) (HPC)
[13] = T/C endpoint: mean survival time, dose: 50.0 mg/kg/injection, schedule: Q04DX003 (ip), vehicle: saline with Tween-80
[14] = T/C endpoint: mean survival time, dose: 400.0 mg/kg/injection, schedule: Q01DX001 (ip), vehicle: saline
[15] = T/C endpoint: mean survival time, dose: 400.0 mg/kg/injection, schedule: Q04DX003 (ip), vehicle: saline

Cc1cn(C2CC3[O][Sn]([CH3])([CH3])[O]CC3O2)c(=O)[nH]c1=O (stereo not given)
survivor count [1]: 0 of 6
survivor count [2]: 0 of 6

CN(C)c1ccc(C2OC3(CCCCC3)C[N+]23CCCC3)cc1 (stereo not given)
survivor count [3]: 3 of 6
survivor count [4]: 1 of 6
survivor count [5]: 0 of 6

CCCCCCCCCCCCCCCCNC(=O)C[N+](C)(C)Cc1ccccc1
survivor count (T/C endpoint: mean survival time, dose: 20.0 mg/kg/injection, schedule: Q04DX003 (ip), vehicle: saline with Tween-80): 5 of 6
survivor count [6]: 0 of 6
survivor count [7]: 0 of 6
survivor count [8]: 0 of 6

COc1ccc(C(C(N)=O)N2CCCC2)cc1 (stereo not given)
survivor count [9]: 4 of 6

CCOC(=O)c1ccc(NC(=O)NC(Cc2ccccc2)c2ccccc2)cc1 (stereo not given)
survivor count [7]: 6 of 6
survivor count [10]: 3 of 3
survivor count [8]: 6 of 6

COc1cccc(Sc2ccc([N+](=O)[O-])c3no[n+]([O-])c23)c1
survivor count (T/C endpoint: median survival time, dose: 120.0 mg/kg/injection, schedule: Q01DX009 (ip), vehicle: saline with Tween-80): 6 of 6
survivor count (T/C endpoint: median survival time, dose: 240.0 mg/kg/injection, schedule: Q01DX009 (ip), vehicle: saline with Tween-80): 1 of 6 and 5 of 6

COc1cc2c(cc1OC)C(N)CCC2 (stereo not given)
survivor count (T/C endpoint: mean survival time, dose: 200.0 mg/kg/injection, schedule: Q01DX009 (ip), vehicle: water): 0 of 6

Nc1nc([Se]c2nc(N)nc3c2ncn3C2OC(CO)C(O)C2O)c2ncn(C3OC(CO)C(O)C3O)c2n1 (stereo not given)
T/C (T/C endpoint: median survival time, dose: 12.5 mg/kg/injection, schedule: Q01DX005 (ip), vehicle: distilled water + Tween-80): 130, 134, 148 % of control
T/C (T/C endpoint: median survival time, dose: 25.0 mg/kg/injection, schedule: Q01DX005 (ip), vehicle: distilled water + Tween-80): 142, 144, 152, 156 % of control
T/C (T/C endpoint: median survival time, dose: 50.0 mg/kg/injection, schedule: Q01DX005 (ip), vehicle: distilled water + Tween-80): 142, 156, 172, 178 % of control [5 of 6 alive]
T/C (T/C endpoint: median survival time, dose: 100.0 mg/kg/injection, schedule: Q01DX005 (ip), vehicle: distilled water + Tween-80): 143, 145, 150, 151, 202 % of control
T/C (T/C endpoint: median survival time, dose: 166.67 mg/kg/injection, schedule: Q01DX005 (ip), vehicle: distilled water + Tween-80): 139 % of control
T/C [11]: 97 [5 of 6 alive], 148, 211 % of control
survivor count [11]: 2 of 5
survivor count (T/C endpoint: median survival time, dose: 277.78 mg/kg/injection, schedule: Q01DX005 (ip), vehicle: distilled water + Tween-80): 4 of 6
survivor count (T/C endpoint: median survival time, dose: 400.0 mg/kg/injection, schedule: Q01DX005 (ip), vehicle: distilled water + Tween-80): 0 of 5

COc1ccc2nc3cc(Cl)ccc3c(NCCNCCNCCNc3c4ccc(Cl)cc4nc4ccc(OC)cc34)c2c1
survivor count (T/C endpoint: mean survival time, dose: 25.0 mg/kg/injection, schedule: Q01DX009 (ip), vehicle: Klucel (hydroxypropylcellulose) (HPC)): 2 of 6
survivor count [12]: 1 of 6

Cc1c2cnccc2c(C)c2c1c1ccccc1n2CCO
T/C [5]: 130 % of control
T/C (T/C endpoint: mean survival time, dose: 200.0 mg/kg/injection, schedule: Q01DX009 (ip), vehicle: saline with Tween-80): 139 % of control

CCCCCCNC(=O)Nc1cccc(Cl)c1C
survivor count [7]: 6 of 6

CC(=O)[O][Pb]([CH3])([CH3])[CH3]
survivor count (T/C endpoint: mean survival time, dose: 25.0 mg/kg/injection, schedule: Q04DX003 (ip), vehicle: saline with Tween-80): 3 of 3
survivor count [13]: 3 of 3
survivor count [6]: 3 of 3

O=C1C=CN(C2OC(CO)C(O)C2O)C(=O)C1 (stereo not given)
T/C [3]: 131 % of control
T/C [4]: 142 % of control
T/C (T/C endpoint: mean survival time, dose: 75.0 mg/kg/injection, schedule: Q01DX005 (iv), vehicle: saline): 127 % of control
survivor count (T/C endpoint: mean survival time, dose: 600.0 mg/kg/injection, schedule: Q01DX005 (iv), vehicle: saline): 6 of 6
T/C (T/C endpoint: median survival time, dose: 12.5 mg/kg/injection, schedule: Q01DX009 (ip), vehicle: saline): 142 % of control
T/C (T/C endpoint: median survival time, dose: 16.0 mg/kg/injection, schedule: Q01DX009 (ip), vehicle: saline): 143, 153, 154, 160 % of control
T/C (T/C endpoint: median survival time, dose: 22.0 mg/kg/injection, schedule: Q01DX009 (ip), vehicle: saline, evaluated on day 45): 145 and 155 % of control
T/C (T/C endpoint: median survival time, dose: 22.0 mg/kg/injection, schedule: Q01DX009 (ip), vehicle: saline, evaluated on day 60): 157, 158, 160, 163 % of control
T/C (T/C endpoint: median survival time, dose: 25.0 mg/kg/injection, schedule: Q01DX009 (ip), vehicle: saline): 141 % of control
T/C (T/C endpoint: median survival time, dose: 33.0 mg/kg/injection, schedule: Q01DX009 (ip), vehicle: saline, evaluated on day 45): 157 and 163 % of control
T/C (T/C endpoint: median survival time, dose: 33.0 mg/kg/injection, schedule: Q01DX009 (ip), vehicle: saline, evaluated on day 60): 156, 161, 169, 180 % of control
T/C (T/C endpoint: median survival time, dose: 50.0 mg/kg/injection, schedule: Q01DX009 (ip), vehicle: saline, evaluated on day 5): 109 % of control
T/C (T/C endpoint: median survival time, dose: 50.0 mg/kg/injection, schedule: Q01DX009 (ip), vehicle: saline, evaluated on day 60): 161, 167, 169, 174, 183 % of control
T/C (T/C endpoint: median survival time, dose: 200.0 mg/kg/injection, schedule: Q01DX009 (ip), vehicle: saline): 132 % of control
T/C (T/C endpoint: median survival time, dose: 400.0 mg/kg/injection, schedule: Q01DX009 (ip), vehicle: saline): 132 % of control

Cc1cc(Cc2ccc(N=C=O)c(C)c2)ccc1N=C=O
survivor count [5]: 6 of 6

NC(=S)N=Nc1c(O)cc(O)c2[nH]c(=O)ccc12
survivor count (T/C endpoint: mean survival time, dose: 200.0 mg/kg/injection, schedule: Q01DX001 (ip), vehicle: saline): 3 of 6
survivor count [14]: 0 of 6

O=C(O)C1CC1
survivor count [14]: 0 of 4

CN(C)C(=O)c1ccc[n+](CC(=O)NCc2ccccc2)c1
survivor count [15]: 3 of 6

CCCCOc1nc(-c2ccncc2)nc(N(C)C)n1
survivor count (T/C endpoint: mean survival time, dose: 200.0 mg/kg/injection, schedule: Q01DX002 (ip), vehicle: saline): 0 of 3
survivor count (T/C endpoint: mean survival time, dose: 400.0 mg/kg/injection, schedule: Q01DX002 (ip), vehicle: saline): 0 of 3

C=CCc1cc(CNCC(O)c2ccccc2)c(O)c(OC)c1 (stereo not given)
survivor count [12]: 0 of 3

O=C(O)CC1CCC1CC(=O)O (stereo not given)
survivor count [9]: 2 of 6

CC(C)N1CCOCC1
survivor count (T/C endpoint: mean survival time, dose: 200.0 mg/kg/injection, schedule: Q04DX003 (ip), vehicle: acetone): 0 of 6
survivor count (T/C endpoint: mean survival time, dose: 400.0 mg/kg/injection, schedule: Q04DX003 (ip), vehicle: acetone): 0 of 6

Nc1nc(N)c2[nH]cnc2n1
survivor count (T/C endpoint: mean survival time, dose: 200.0 mg/kg/injection, schedule: Q01DX005 (ip), vehicle: Klucel (hydroxypropylcellulose) (HPC)): 0 of 6

Cc1cc(CCl)c(C)cc1CCl
survivor count [7]: 2 of 3
survivor count [8]: 0 of 3

Nc1nc(=S)nc(N)[nH]1
survivor count [13]: 3 of 6
survivor count [6]: 0 of 6
survivor count [7]: 0 of 6

CN(C)C(=S)Oc1c([N+](=O)[O-])cc([N+](=O)[O-])cc1C(C)(C)C
survivor count (T/C endpoint: mean survival time, dose: 200.0 mg/kg/injection, schedule: Q04DX002 (ip), vehicle: saline with Tween-80): 0 of 3
survivor count [10]: 0 of 3

C[CH2][Sn]1([CH2]C)[O]C2C(CO)OC(n3ccc(N)nc3=O)C2[O]1 (stereo not given)
survivor count (T/C endpoint: mean survival time, dose: 25.0 mg/kg/injection, schedule: Q01DX005 (ip), vehicle: other): 1 of 6
survivor count (T/C endpoint: mean survival time, dose: 25.0 mg/kg/injection, schedule: Q01DX005 (ip), vehicle: water): 0 of 6
survivor count (T/C endpoint: mean survival time, dose: 50.0 mg/kg/injection, schedule: Q01DX005 (ip), vehicle: other): 0 of 6
survivor count [1]: 0 of 6
survivor count [2]: 0 of 6

Cc1cc2ccccc2c[n+]1C
survivor count (T/C endpoint: mean survival time, dose: 100.0 mg/kg/injection, schedule: Q04DX003 (ip), vehicle: saline): 6 of 6
survivor count (T/C endpoint: mean survival time, dose: 200.0 mg/kg/injection, schedule: Q04DX003 (ip), vehicle: saline): 0 of 6
survivor count [15]: 0 of 6
